Measurements reported in PubChem BioAssay AID504793 (Drosophila RNAi Screening Center, 2011)
The screen tested about 23,000 reagents; this is an unselected part of those that have a named target and a result. In the full data, 62 (0.27%) are marked active. 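Calls come from follow-up tests whose scores are not deposited, so confirmed genes may have low counts here; counts are not normalised per plate.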 The raw values are shown without normalisation. Names joined by + are all predicted targets of the reagent. Reagent sequences are not shown.

Aim: 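Genes required for cells to halt at G2/M after double-strand DNA breaks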 (primary screen)
Cells: Drosophila S2R+ cells
Reagent: long dsRNA against Drosophila genes, about 0.25 µg dsRNA per well
Duration: 4 days of dsRNA, then 4 hours of drug before read-out
Conditions: doxorubicin 0.5 µM for 4 hours to cause double-strand breaks, in cells also given a low, harmless dose of dsRNA against nbs to sensitise the assay
Read-out: 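Mitotic index as the number of phospho-histone H3-positive cells in each well following doxorubicin, given as raw counts without normalisation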
Scale: mitotic cells: higher = more cells in mitosis, weaker G2 arrest
Rule for the call: 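a call needs confirmation in secondary tests, with other dsRNAs and a check of mitotic timing without damage, not just a high primary count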
Meaning of the calls: active = confirmed in follow-up tests; inactive = not confirmed

CG7800 [DRSC16315]
- mitotic cells, replicate 1: 4
- call: inactive

CG7800 [DRSC27419]
- mitotic cells, replicate 1: 6
- call: inactive

CG18048 [DRSC12573]
- mitotic cells, replicate 1: 2
- call: inactive

CG18048 [DRSC29053]
- mitotic cells, replicate 1: 10
- call: inactive

Gba1a (Glucocerebrosidase 1a) [DRSC21494]
- mitotic cells, replicate 1: 9
- call: inactive

CG3224 [DRSC18295]
- mitotic cells, replicate 1: 10
- call: inactive

RhoGAP54D (Rho GTPase activating protein at 54D) [DRSC06990]
- mitotic cells, replicate 1: 6
- call: inactive

RhoGAP54D (Rho GTPase activating protein at 54D) [DRSC26684]
- mitotic cells, replicate 1: 3
- call: inactive

CG12947 [DRSC14575]
- mitotic cells, replicate 1: 9
- call: inactive

CG18518 [DRSC01509]
- mitotic cells, replicate 1: 5
- call: inactive

CG13795 [DRSC02299]
- mitotic cells, replicate 1: 4
- call: inactive

Cep164 (centrosomal protein 164) [DRSC20163]
- mitotic cells, replicate 1: 9
- call: inactive

trem (trade embargo) [DRSC15575]
- mitotic cells, replicate 1: 3
- call: inactive

CG10761 [DRSC17753]
- mitotic cells, replicate 1: 11
- call: inactive

CG10761 [DRSC27665]
- mitotic cells, replicate 1: 6
- call: inactive

CG1635 [DRSC15131]
- mitotic cells, replicate 1: 5
- call: inactive

CG1635 [DRSC25487]
- mitotic cells, replicate 1: 7
- call: inactive

Nadk1a (NAD kinase 1a) [DRSC05431]
- mitotic cells, replicate 1: 17
- call: inactive

Nadk1a (NAD kinase 1a) [DRSC06963]
- mitotic cells, replicate 1: 5
- call: inactive

Next part (5 carried over from the part before).
CG10761 [DRSC27665]
- mitotic cells, replicate 1: 6
- call: inactive

CG1635 [DRSC15131]
- mitotic cells, replicate 1: 5
- call: inactive

CG1635 [DRSC25487]
- mitotic cells, replicate 1: 7
- call: inactive

Nadk1a (NAD kinase 1a) [DRSC05431]
- mitotic cells, replicate 1: 17
- call: inactive

Nadk1a (NAD kinase 1a) [DRSC06963]
- mitotic cells, replicate 1: 5
- call: inactive

Had2 (beta Hydroxy acid dehydrogenase 2) [DRSC05971]
- mitotic cells, replicate 1: 6
- call: inactive

Had2 (beta Hydroxy acid dehydrogenase 2) [DRSC26955]
- mitotic cells, replicate 1: 2
- call: inactive

Uvrag (UV-resistance associated gene) [DRSC02932]
- mitotic cells, replicate 1: 5
- call: inactive

RpL41 (Ribosomal protein L41) [DRSC22958]
- mitotic cells, replicate 1: 11
- call: inactive

Myo31DF (Myosin 31DF) [DRSC03376]
- mitotic cells, replicate 1: 4
- call: inactive

Myo31DF (Myosin 31DF) [DRSC22702]
- mitotic cells, replicate 1: 7
- call: inactive

Myo31DF (Myosin 31DF) [DRSC25363]
- mitotic cells, replicate 1: 7
- call: inactive

otk (off-track) [DRSC07658]
- mitotic cells, replicate 1: 3
- call: inactive

otk (off-track) [DRSC29192]
- mitotic cells, replicate 1: 6
- call: inactive

CG12817 + CG12420 [DRSC22814]
- mitotic cells, replicate 1: 10
- call: inactive

CG32206 [DRSC10094]
- mitotic cells, replicate 1: 4
- call: inactive

CG32206 [DRSC10095]
- mitotic cells, replicate 1: 1
- call: inactive

CG32206 [DRSC10096]
- mitotic cells, replicate 1: 2
- call: inactive

CG32206 [DRSC11080]
- mitotic cells, replicate 1: 6
- call: inactive

CG32073 [DRSC09087]
- mitotic cells, replicate 1: 6
- call: inactive

CG32073 [DRSC09894]
- call: inactive

shot (short stop) [DRSC05459]
- mitotic cells, replicate 1: 7
- call: inactive

shot (short stop) [DRSC05460]
- mitotic cells, replicate 1: 3
- call: inactive

shot (short stop) [DRSC07682]
- mitotic cells, replicate 1: 4
- call: inactive

shot (short stop) [DRSC25070]
- mitotic cells, replicate 1: 8
- call: inactive

l(3)73Ah (lethal (3) 73Ah) [DRSC11359]
- mitotic cells, replicate 1: 3
- call: inactive

CG33108 [DRSC21613]
- mitotic cells, replicate 1: 11
- call: inactive

CG33108 [DRSC26424]
- mitotic cells, replicate 1: 2
- call: inactive

Nprl3 (Nitrogen permease regulator-like 3) [DRSC11044]
- mitotic cells, replicate 1: 5
- call: inactive
